In article PMC8233386 one finds binding data, which are given here for three molecules.

Sequences of proteins named here, by UniProt entry; tags and fusion partners are left off.
UniProt P35222: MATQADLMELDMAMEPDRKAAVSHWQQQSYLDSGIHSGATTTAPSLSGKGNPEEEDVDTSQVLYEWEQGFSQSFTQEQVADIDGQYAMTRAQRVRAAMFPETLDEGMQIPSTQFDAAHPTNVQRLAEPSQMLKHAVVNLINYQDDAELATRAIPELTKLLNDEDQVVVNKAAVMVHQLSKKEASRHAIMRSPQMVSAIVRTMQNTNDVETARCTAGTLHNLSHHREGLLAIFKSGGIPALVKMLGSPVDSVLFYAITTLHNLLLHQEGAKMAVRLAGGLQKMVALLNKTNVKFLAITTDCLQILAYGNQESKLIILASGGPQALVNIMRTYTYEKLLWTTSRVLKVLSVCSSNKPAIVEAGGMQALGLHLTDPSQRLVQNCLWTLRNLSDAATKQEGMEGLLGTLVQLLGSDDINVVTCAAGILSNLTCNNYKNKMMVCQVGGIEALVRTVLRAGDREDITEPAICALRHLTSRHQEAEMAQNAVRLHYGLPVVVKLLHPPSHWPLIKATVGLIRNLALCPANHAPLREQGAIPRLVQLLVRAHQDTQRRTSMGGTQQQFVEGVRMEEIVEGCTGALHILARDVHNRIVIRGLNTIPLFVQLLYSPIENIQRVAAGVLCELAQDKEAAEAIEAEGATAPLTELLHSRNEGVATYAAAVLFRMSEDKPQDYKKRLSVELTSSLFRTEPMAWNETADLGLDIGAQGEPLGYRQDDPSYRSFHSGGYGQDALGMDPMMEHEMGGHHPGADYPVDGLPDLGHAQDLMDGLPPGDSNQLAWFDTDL
UniProt Q9NQB0: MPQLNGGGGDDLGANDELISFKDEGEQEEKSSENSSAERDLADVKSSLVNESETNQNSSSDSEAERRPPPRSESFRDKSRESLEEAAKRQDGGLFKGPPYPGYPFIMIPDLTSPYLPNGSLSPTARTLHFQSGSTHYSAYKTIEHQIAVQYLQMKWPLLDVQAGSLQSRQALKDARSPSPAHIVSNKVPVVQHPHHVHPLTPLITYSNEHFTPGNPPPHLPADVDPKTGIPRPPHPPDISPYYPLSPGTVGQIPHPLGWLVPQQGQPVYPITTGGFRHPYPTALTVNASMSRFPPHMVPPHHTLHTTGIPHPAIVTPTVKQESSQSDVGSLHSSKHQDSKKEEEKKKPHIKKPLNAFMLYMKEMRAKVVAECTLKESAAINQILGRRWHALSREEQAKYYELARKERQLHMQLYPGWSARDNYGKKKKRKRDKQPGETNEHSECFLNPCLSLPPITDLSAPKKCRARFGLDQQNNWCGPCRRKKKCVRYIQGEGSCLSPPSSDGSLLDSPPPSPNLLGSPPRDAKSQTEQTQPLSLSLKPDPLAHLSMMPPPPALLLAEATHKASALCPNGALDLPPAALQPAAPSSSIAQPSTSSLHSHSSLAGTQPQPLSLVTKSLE

The target in experiment [1] is T1, CT45A1 (UniProt Q5HYN5).
T1 sequence: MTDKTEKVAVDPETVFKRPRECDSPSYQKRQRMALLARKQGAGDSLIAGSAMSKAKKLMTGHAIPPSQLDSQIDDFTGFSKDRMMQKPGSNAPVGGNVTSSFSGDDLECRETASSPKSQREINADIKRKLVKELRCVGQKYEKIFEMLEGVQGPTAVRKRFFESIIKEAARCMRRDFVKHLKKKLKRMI
Nature of the experiment: co-IP; Co-IP with anti-CT45A1 antibody (Fig. 6F); in nucleus.

In experiment [2] the target is T1, CT45A1. Nature of the experiment: co-IP; Co-IP in nuclear extract (Fig. 6C, D); precipitating antibody and cells not stated.
In experiment [3] the target is flag-β-catenin (UniProt P35222). Nature of the experiment: co-IP; Co-IP with anti-flag antibody (flag-β-catenin), under CT45A1 overexpression (Fig. 6E); in nucleus.

These are yes or no findings as the source states them, for the method shown. In cells and extracts the contact can be indirect. Some results given as binding are weak or reduced against the parent protein; the word gives no strength.

On to TCF4 (from UniProt Q9NQB0 1-619), for which the binding result in experiment [1] and in experiment [2] was “binds” throughout.
Turning to β-catenin (from UniProt P35222 1-781), the binding entry in experiment [1] and in experiment [2] was “binds” throughout.

B1: CT45A1 (protein, UniProt Q5HYN5 1-189)
chain: MTDKTEKVAVDPETVFKRPRECDSPSYQKRQRMALLARKQGAGDSLIAGSAMSKAKKLMTGHAIPPSQLDSQIDDFTGFSKDRMMQKPGSNAPVGGNVTSSFSGDDLECRETASSPKSQREINADIKRKLVKELRCVGQKYEKIFEMLEGVQGPTAVRKRFFESIIKEAARCMRRDFVKHLKKKLKRMI
B1: the binding result in experiment [3] is reported as “binds”.
